Source: PubChem BioAssay AID1625 (Sanford-Burnham Center for Chemical Genomics, 2009)
Where “and” joins values, the source holds several entries; their conditions need not be identical. Equal values may be shown once. Among all 190,000 compounds or so, about 570 (0.3%) were called active. This list was built around the results that the source calls inconclusive (neither active nor inactive); the mix of calls is not that of the screen.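 How the source made its calls: active means z-score above 3 at 5 µM with at least 500 cells counted in the well; inconclusive means wells under 500 cells, flagged as cytotoxic or low count; inactive means the rest.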

assay: up-regulation of insulin promoter-GFP reporter – imaging, high-content screening, mouse beta cells (AID 1625); conditions: MIN6 insulin promoter-GFP reporter, at 5 µM, hits give high values

SMILES | z-score
Cc1ccc(-c2cn(-c3ccccc3)c3[n+]2CCCS3)cc1 | inconclusive: -5.01 and inconclusive: -5.23
COc1cc(CN(C)C)cc(C=O)c1O | inactive: 0.52
c1ccc(CN2CCC(Nc3nc(-c4cccnc4)nc4ccccc34)CC2)cc1 | inactive: -0.16
C#CC(=O)N(c1ccc(OC)cc1OC)C(C(=O)NC1CCCC1)c1cccs1 (configuration not stated) | inconclusive: -5.43
Cn1c(=O)[nH]c(=O)c2c1nc(N1CCCCC1)n2CC(O)CN1CCCCC1 (configuration not stated) | inactive: -0.58
CCN1CCN(Cc2ccc(NC(=O)c3ccc(C)c(NC(=O)c4c[nH]c5cc(C(F)(F)F)ccc5c4=O)c3)cc2C(F)(F)F)CC1 | inconclusive: -3.97
CC(NC(=O)c1ccnc(C(C)(C)C)c1)c1ccccc1 (configuration not stated) | inactive: -0.48
CN(C)c1ccc(/C=C/c2ccc3ccccc3n2)cc1 | active: 7.29
COc1ccc(N(CC(=O)NC2CCCC2)S(=O)(=O)c2c(C)[nH]c(=O)[nH]c2=O)cc1 | inconclusive: -2.86
COc1cc(/C=N/NC(=O)CSc2ccccn2)ccc1O | inconclusive: -4.21
O=C(Cn1cnc2c(nnn2Cc2ccccc2)c1=O)NCC1CCCO1 (configuration not stated) | inactive: 0.29
COc1ccc(N/N=C/c2c(C(=O)O)ccc3ccccc23)cc1 | inconclusive: -4.12
Cc1cccc(OCc2nnc(SCC(=O)Nc3cccc(C(=O)N4CCOCC4)c3)o2)c1C | inconclusive: -2.64
Cc1cccc2sc(NNC(=O)C3COc4ccccc4O3)nc12 (configuration not stated) | inactive: 2.44
c1ccc(-c2c[n+]3c(n2-c2ccccc2)CCC3)cc1 | inconclusive: -4.26
Nc1ccc2c(c1)CC(=O)c1ccccc1S2 | inconclusive: -4
O=C(Nc1nc(-c2ccccn2)cs1)c1ccc(S(=O)(=O)N2CCCCC2)cc1 | inconclusive: -3.98
N=c1c2c(n(Cc3ccc(Br)cc3)c3c1CCC3)CCCC2 | inconclusive: -1.03
CCc1nnc(NC(=O)CSc2nnc(-c3ccccc3OC)n2-c2ccc(C)cc2)s1 | inactive: 0.59

Structures shown so far that contain two or more sulfur atoms, in the order listed:
SMILES | z-score
O=C(Nc1nc(-c2ccccn2)cs1)c1ccc(S(=O)(=O)N2CCCCC2)cc1 | inconclusive: -3.98
CCc1nnc(NC(=O)CSc2nnc(-c3ccccc3OC)n2-c2ccc(C)cc2)s1 | inactive: 0.59

(next part)

SMILES | z-score
OCCCNc1nccc(-c2cc(Nc3cccc(Cl)c3)ncn2)n1 | inconclusive: 3.79
COc1ccc(C=C2c3ccccc3C(=O)c3ccccc32)c(OC)c1 | inconclusive: -1.25
CCCCCCCn1ccc(=N)cc1 | inconclusive: -7
COCCN1CN(S(=O)(=O)c2ccccc2)c2nc3ccccc3nc21 | active: 3.14
CNCc1ccccc1Sc1ccc(O)c(O)c1 | inactive: -0.02
O=C(Nc1ccc(N2CCCCC2)cc1)c1cccnc1 | active: 3.44
C#CCOCCOCCOCCNc1nc(N2CCN(C(=O)[C@H]([C@@H](C)O)n3cc(CCCCN)nn3)CC2)nc(N2CCN(C(=O)[C@H]([C@@H](C)CC)n3cc(CCCN=C(N)N)nn3)CC2)n1 | inconclusive: -0.48
COc1ccc2cc(CCNC(=O)c3c(-c4ccccc4Cl)noc3C)c(=O)[nH]c2c1 | inconclusive: -6.22
C=CCn1c(-c2ccc(S(=O)(=O)N3CCOCC3)cc2)csc1=Nc1ccccc1 | inactive: -0.91
CCN(CC)c1ccc(NC2=C(Cl)C(=O)c3ccccc3C2=O)cc1 | inconclusive: -2
Cc1cc(C)nc(SCc2ccc(C(=O)NNC(=O)Nc3cccc(Cl)c3)cc2)n1 | inactive: 0.02
O=C(N/N=C/C(Br)=C\c1ccccc1)c1n[nH]c2c1CCC2 | inconclusive: -0.08
CN1/C(=C\C(=O)COC(=O)CN2C(=O)C3CC=CCC3C2=O)C(C)(C)c2ccccc21 (configuration not stated) | inactive: -0.86
CN(C)CCCCNCCCNC(=O)/C=N\O | inconclusive: -6.34
COc1ccccc1CNC(=O)C1=C(C)C(=O)OC12CCC(C)CC2 (configuration not stated) | inconclusive: 0.44
O=C(NC(Nc1nc2ccc([N+](=O)[O-])cc2s1)(C(F)(F)F)C(F)(F)F)c1ccccc1Cl | inconclusive: -3.56
COc1ccc(C2CC(c3ccccc3)=NN2c2ccc(S(N)(=O)=O)cc2)cc1 (configuration not stated) | inconclusive: -1.75
Cc1ccc(-n2c(C)cc(C(=O)CSc3nncs3)c2C)cc1 | inconclusive: -4.86
O=C(NCc1ccco1)c1ccc(=O)[nH]n1 | inconclusive: -0.64

SMILES | z-score
O=C(C1CCCCN1S(=O)(=O)c1ccccc1)N1CCN(C(c2ccccc2)c2ccccc2)CC1 (configuration not stated) | inconclusive: -2.14
c1ccc2c(c1)OC(CCCN1CCCCC1)c1ccccc1S2 (configuration not stated) | inconclusive: -1.81
CC1CCCC(C)N1C(=O)COc1ccc(C(=O)Nc2ccccc2N2CCOCC2)cc1 (configuration not stated) | inactive: -0.27
O=C(Oc1cccc2cccnc12)c1ccco1 | inconclusive: -1.9
O=C(Cc1c(F)cccc1Cl)Nc1ccncc1 | inconclusive: -1.54
O=C(NC1(C(F)(F)F)NC(=O)N(c2ccc(F)c(Cl)c2)C1=O)c1ccncc1 (configuration not stated) | active: 4.5
O=C(NCc1ccc(F)cc1)C1CCCN(S(=O)(=O)c2cccnc2)C1 (configuration not stated) | active: 3.46
O=C1c2ccccc2C(O)(Cc2ccccc2)N1C1CCCCC1 (configuration not stated) | inconclusive: -5.12
COC(=O)c1[nH]c2cc(C)ccc2c1NC(=O)CN1CCN(c2ccccc2OC)CC1 | inactive: -1.57
COc1ccc(C)cc1NC(=O)COC(C)=O | active: 3.48
CCc1c(C)nc2ncnn2c1NCCc1ccc(OC)cc1 | inconclusive: -5.21
CC(C)(C)/C(O)=C/c1nc2ccccc2[nH]c1=O | inactive: -0.02
COC(=O)CCCCC1SCC2NC(=O)NC21O (configuration not stated) | inactive: -0.13
CCOC(=O)N1CCN(C(=O)c2cn(CC)c3ccc(S(=O)(=O)N4CCC(C)CC4)cc3c2=O)CC1 | inactive: 0.1
O=c1c(Br)c(Br)cnn1-c1ccccc1 | inconclusive: -3.12
COc1ccc(C2=NC(=O)/C(=C\c3cc(OC)c(OC)c(OC)c3)O2)cc1 | active: 3.04
Cc1ccc(CNc2nc(C)nc3sc4c(c23)CCC4)cc1 | inconclusive: -1.32
COCC(=O)O[C@]1(CCN(C)CCCc2nc3ccccc3[nH]2)CCc2cc(F)ccc2[C@@H]1C(C)C | inconclusive: -1.71
Cc1ccc(C(=O)OCn2ncc(Cl)c(Cl)c2=O)cc1 | inconclusive: -3.18
